Test results as given in PubChem BioAssay AID504467 (National Center for Advancing Translational Sciences (NCATS), 2011).
Screen size: about 330,000 compounds; about 7,700 (2.3%) were called active. This list was built around the results that the source calls inconclusive (neither active nor inactive); the mix of calls is not that of the screen. Calls follow the shape of the dose curve; as a rule, active = well fitted inhibition curve with a large enough effect; inconclusive = small, poorly fitted or top-dose-only effect, or effect the other way; inactive = flat fitted curve, though single readings scatter. Where the call is inconclusive, the potency comes from a doubtful curve fit.

Assay: qHTS screen for small molecules that inhibit ELG1-dependent DNA repair in human embryonic kidney (HEK293T) cells expressing luciferase-tagged ELG1; also: nearly all actives have a fitted effect of over 55% in size
Conditions: HEK293T ELG1-luciferase reporter, luminescence, 16 h, DNA damage induced by 5-fluorouridine; activity change, negative = inhibition: at 46.1 µM (top of the series)
Summary of the method: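 HEK293T cells expressing luciferase-tagged ELG1 (2,000/well) received 5-Fluorouridine plus compound or DMSO for 16 hr at 37 °C. Luciferase was read by ONE-Glo luminescence after 30 min at room temperature.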
% is scaled to controls: 0 for no effect and ±100 for the full control effect; potency is read from the fitted curve at half-maximal effect.

Structure (SMILES)	activity change, negative = inhibition	Potency
CC(C)CN(C(=O)COC(=O)c1cc2c(s1)CCC2)C1CCS(=O)(=O)C1 (stereo unspecified)	inactive: 0.683%	
COc1ccc(C2=CC(c3cc(OC)c(OC)c(OC)c3)NC(=S)N2)cc1 (stereo unspecified)	inactive: -4.65%	
Cn1c(CC(=O)Nc2ccc(Cl)c(Cl)c2)n[nH]c1=S	inactive: 4.9%	
CCCCCCCN(C(=O)CCl)c1ccccc1C	inactive: -14.7%	
O=C1CCCC1C(=O)Nc1ccc2ccccc2c1 (stereo unspecified)		inconclusive: 29.1 µM [activator, single point]
Cc1cccc(Cn2c(C)nc3c(N)c(C)c(C)cc32)c1		inconclusive: 20.6 µM [inhibitor, single point]
Cc1ccc(C)c(NS(=O)(=O)c2cc(C(=O)NCC3CCCO3)ccc2C)c1 (stereo unspecified)		inconclusive: 25.9 µM [inhibitor, single point]
CC(=O)N1CCC(N(CCN2CCOCC2)C(=S)Nc2ccc(C)c(C)c2)CC1	inactive: -9.96%	
Cc1ccc(C(=O)N/C(=C\c2ccccc2F)c2nc(=S)[nH][nH]2)cc1		inconclusive: 13 µM [inhibitor, partial curve]
CCOC(=O)c1sc(NC(=O)CCSC)nc1C		inconclusive: 29.1 µM [inhibitor, single point]
CCN(CC)CCn1c(=N)n(CC(O)COc2ccccc2)c2ccccc21 (stereo unspecified)		inconclusive: 13 µM [activator, single point]
CCCC[C@@H]1CNC(=S)N1CCC12CC3CC(CC(C3)C1)C2	inactive: 1.44%	
Cn1c(NCCCN2CCOCC2)nc2c1c(=O)n(Cc1ccc(Cl)cc1)c(=O)n2C	inactive: -11.9%	
c1ccc2sc(Nc3nc4cc5c(cc4s3)OCO5)nc2c1		inconclusive: 2.59 µM [activator, partial curve]
C=C[C@@H](C)N(Cc1ccc(OC)cc1)S(=O)(=O)N(Cc1ccccc1)[C@H](C=C)C(C)C		inconclusive: 29.1 µM [activator, single point]
O=[N+]([O-])c1ccc2oc(-c3cccc(O)c3)nc2c1		inconclusive: 5.17 µM [activator, full curve]
CN(C)/N=C/C=C1\CCC/C(=C/c2cccs2)C1=O		inconclusive: 2.91 µM [activator, full curve]
COc1ccc(-c2nnn3c2nc(NCc2ccccc2)c2ccccc23)cc1		inconclusive: 13 µM [activator, partial curve, poor fit]
COc1ccc(-n2c(SCC(=O)O)nc3sc4c(c3c2=O)CCCC4)cc1	inactive: 9.8%	
O=C(Cc1ccc(Br)cc1)Nc1ccc(S(=O)(=O)N2CCCC2)cc1		inconclusive: 25.9 µM [inhibitor, single point]
Cc1ccc(-c2cc(-c3n[nH]c(=S)n3C)c3ccccc3n2)cc1		inconclusive: 5.8 µM [activator, partial curve, poor fit]
Cc1cc(C)n(CC(C)(O)c2ccccc2)n1 (stereo unspecified)	inactive: 2.5%	
CCc1ccccc1NC(=S)NCc1ccc2c(c1)OCO2		inconclusive: 32.6 µM [activator, single point]

4 compounds from above, arranged by SMILES length, largest number first.
Structure (SMILES)	activity change, negative = inhibition	Potency
C=C[C@@H](C)N(Cc1ccc(OC)cc1)S(=O)(=O)N(Cc1ccccc1)[C@H](C=C)C(C)C		inconclusive: 29.1 µM [activator, single point]
CC(C)CN(C(=O)COC(=O)c1cc2c(s1)CCC2)C1CCS(=O)(=O)C1 (stereo unspecified)	inactive: 0.683%	
CCCC[C@@H]1CNC(=S)N1CCC12CC3CC(CC(C3)C1)C2	inactive: 1.44%	
CCc1ccccc1NC(=S)NCc1ccc2c(c1)OCO2		inconclusive: 32.6 µM [activator, single point]

Later entries.

Structure (SMILES)	activity change, negative = inhibition	Potency
CC(=O)c1cccc(NC(=S)NC(=O)CC(C)C)c1	inactive: 21.3%	
CCOC(=O)N1CCN(c2cc(=O)n(-c3cccc(Br)c3)c(=O)[nH]2)CC1		inconclusive: 29.1 µM [activator, partial curve, poor fit]
COc1ccc(-c2nc(N/N=C(\C)c3ccc(O)cc3)c3ccccc3n2)cc1		inconclusive: 20.6 µM [inhibitor, single point]
O=C(N/N=C/c1cn(CCOc2ccccc2)c2ccccc12)c1ccncc1	inactive: -12.1%	
COC(=O)c1cc(NC(=O)c2ccccc2)c(=O)oc1C		inconclusive: 32.6 µM [activator, single point]
COc1ccc(C(CNC(=O)CNC(=O)c2ccccc2)N2CCCC2)cc1 (stereo unspecified)	inactive: 19.8%	
CC12CCC(=O)N1C(C(=O)NCCc1ccc(S(N)(=O)=O)cc1)CS2 (stereo unspecified)	inactive: 2.65%	
Cc1ccccc1C(=O)N1CCN(CCNC(=O)C(=O)Nc2ccc(Br)cc2)CC1		active: 20.6 µM
Cc1ccc2c3c([nH]c2c1C)-c1nonc1CC3		inconclusive: 14.6 µM [activator, partial curve]
O=C(CS(=O)(=O)c1ccc(F)cc1)Nc1nnc(-c2ccccc2Cl)o1		inconclusive: 25.9 µM [activator, single point]
CC(C)N(C(=O)N1CCN(c2ccnc3cc(Cl)ccc23)CC1)C(C)C		inconclusive: 25.9 µM [inhibitor, single point]
Cc1ccc(C(=O)N/C(=C\c2ccc(Cl)cc2)C(=O)NCC2CCCO2)cc1 (stereo unspecified)	inactive: 1.76%	
O=c1[nH]c2ccccc2n2c(-c3ccncc3)nnc12		inconclusive: 20.6 µM [activator, partial curve, poor fit]
N#Cc1c(NCCN)nc(-c2ccco2)c2c1CCCC2		inconclusive: 4.61 µM [inhibitor, partial curve, poor fit]
Cc1ccc(-c2cc(C(=O)N3CCN(c4ncccn4)CC3)c3ccccc3n2)cc1		inconclusive: 29.1 µM [inhibitor, single point]
COc1ccc(-c2cc(C(=O)OCC(=O)N3CCOCC3)c3ccccc3n2)cc1		active: 20.6 µM
NC(=O)c1ccsc1NC(=O)COC(=O)Cc1c[nH]c2ccccc12		inconclusive: 25.9 µM [inhibitor, single point]
Cc1nn(Cc2ccc(C(=O)Nc3ccc(C(=O)OC(C)C)cc3)o2)c(C)c1Cl		active: 18.4 µM
COc1ccccc1NC(=O)Cc1noc(CSc2cccc[n+]2[O-])n1		inconclusive: 0.231 µM [activator, full curve, poor fit]
COc1ccccc1N1CCN(C2=Nc3cccc4cccc2c34)CC1		inconclusive: 8.2 µM [activator, partial curve]
O=C1OCC2=C1C(c1ccc(F)cc1)c1cc3c(cc1N2)OCO3 (stereo unspecified)		inconclusive: 18.3 µM [inhibitor, partial curve, poor fit]
O=C(COC(=O)c1ccccc1Nc1ccc(SC(F)F)cc1)NC1CC1		inconclusive: 20.6 µM [activator, partial curve]
CCCc1cc2c(=O)c(-c3ccc4c(c3)OCCO4)coc2cc1OS(C)(=O)=O		inconclusive: 32.6 µM [inhibitor, single point]
